Measurements published in US9273015B2, “s-Triazine compounds, pharmaceutical compositions and methods of using the same” (NEW YORK UNIVERSITY, priority 2010, dated 2016).

test system: E. coli D31; assay: Growth inhibition (broth microdilution), E. coli D31; assay type: cell-based, Escherichia coli; conditions: Table 3; ratio of HD50 to IC50
Description: The antimicrobial activity of each peptide can be tested following standard broth microdilution protocols recommended by the National Committee for Clinical Laboratory Standard. Multidrug-resistant Staphylococcus aureus strain (ATCC BAA-44) and Acinetobacter baumannii (ATCC BAA-747) can be used in this study, as well as Ampicillin- and streptomycin-resistant Escherichia coli (D31), obtained from the E. coli Genetic Resource Center (Yale University, New Haven, Conn.). Bacteria can be grown overnight in Tryptic Soy broth at 37° C. Then, cultures are diluted in Mueller-Hinton broth to a final concentration range of 2×10^4 to 2×10^5 CFU/ml. Bacterial inocula are incubated at 37° C. in phosphate-buffered saline (PBS) buffer (pH7.2) with various dilutions of peptide stock. The 18-hour absorbance data are used to calculate the percentage of inhibition for each sample by comparison with the absorbance of cultures without sample. Bacterial growth is measured by turbidity as optical density at 600 nm (OD600), using a Genesys 5 Spectrophotometer (Rochester, N.Y.) or equivalent instrument. All assays can be carried out in triplicate. The concentration of peptide that results in 50% inhibition of growth is recorded as the IC50. In addition the concentration of agents needed can be monitored to reduce the bacterial population by three logs, IC99.9. This is a more rigorous indicator of the amount needed to prevent an infection.
The antimicrobial activity of each triazine compound was tested by following standard broth microdilution protocols recommended by the National Committee for Clinical Laboratory Standard. All compounds were initially tested against Bacillus subtilis (ATCC 6633; Rockville, Md.). Bacteria were grown in Mueller Hinton Broth (MHB) at 37° C. for overnight. Then, cultures were diluted in MHB to a final concentration of 2×10^4 to 2×10^5 CFU/mL. Bacterial inocula were incubated at 37° C. in PBS buffer (pH 7.2) with varying concentrations of 2-fold dilution of triazine stocks. The 18-hour absorbance data were used to calculate the percent inhibition for each sample by comparing with the absorbance of cultures without triazine compounds. Bacterial growth was measured by turbidity as optical density at 600 nm using a Genesys 5 Spectrophotometer (Rochester, N.Y.).

Row | Compound | E. coli HI
1 | CCCCN(CCCC)CCCNc1nc(NCCc2c[nH]c3ccccc23)nc(NCCc2c[nH]c3ccccc23)n1 [TZ-WK(Bu)2W] | 4.3
2 | NCCCNc1nc(NCCc2c[nH]c3ccccc23)nc(NCCc2c[nH]c3ccccc23)n1 [TZ-WKW] | 14.1
3 | N=C(N)NCCNc1nc(NCCc2c[nH]c3ccccc23)nc(NCCc2c[nH]c3ccccc23)n1 [TZ-WRW] | 10.6

same assay, conditions: ratio of HD50 to MIC50, E. coli D31

Row | Compound | HI
4 | CCCCN(CCCC)CCCNc1nc(NCc2ccccc2)nc(Nc2cccc3ccccc23)n1 [TN2] | 31.1
5 | NCCCCNc1nc(NCc2ccccc2)nc(Nc2cccc3ccccc23)n1 [TN3] | 22.5
6 | CCCCN(CCCC)CCCNc1nc(NCc2ccccc2)nc(NCc2cccc3ccccc23)n1 [TN4] | 11.77
7 | NCCCCNc1nc(NCc2ccccc2)nc(NCc2cccc3ccccc23)n1 [TN5] | 35.26
